Experimental data reported in patent US20260028391A1.
Substitutions are numbered along the chain they refer to. These are yes or no findings as the source states them, for the method shown. Some binding calls cover weakened binding; strength is not graded here.

B1: MPH12-v1 (VH C111/C112.2 variant of Tables 18 and 19) (antibody, V domains shown)
VH: QVQLVESGGGLVKPGGSLRLSCVASGFTFSGFYMKWIRQAPGKGLEWVSSISASGSYTNYADSVEGRFTVSRDNAKNSLFLLMSSLRAEDTAVYYCARGDSYSGASASHGEFFHKWGQGTLVTVSS
VL: QSVLTQPPSVSGAPGQRVTISCTGSDSNIGADFDVHWYQQLPGTAPKLLIYGNINRPSGVPDRFSGSRSGTSAFLAITRLQAEDEADYYCQSYDRSLHYVFGAGTKVTVL
B2: MPH12-v2 (VH C111/C112.2 variant of Tables 18 and 19) (antibody, V domains shown)
VH: B1 VH with S103A, S108A
VL: B1 VL

Biological target: DS-Cav1 RSV F (respiratory syncytial virus (RSV); strain not stated in the example) (UniProt P13843)
Assay: ELISA on RSV-F Ds-Cav1, 1 ug/ml

Row | Binder | binding
1 | B1 | binds
2 | B2 | binds
